Measured values as given in PubChem BioAssay AID2685 (National Center for Advancing Translational Sciences (NCATS), 2010).
This is one part of the list. Further columns of the screen follow, without active or inactive calls. Most of these compounds were active or inconclusive in the main read-out, so they are no random draw. Words in brackets tell the shape of the fitted curve; partial curves, single points and poor fits give uncertain potencies.

Experiment: qHTS Assay for Lipid Storage Modulators in Drosophila S3 Cells;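 as to cell number change: cells counted by Cell Tracker Red CMTPX staining in the red channel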
Details: BODIPY lipid droplet fluorescence, 18-24 h; for cell number change: measured here: cell count max response, cells fed with added oleic acid
Procedure, shortened: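 Drosophila S3 cells loaded with oleic acid (400 uM, as added) and compounds at several concentrations; lipid droplets imaged by 488-nm laser-scanning cytometry, 500–530 nm intensity and object ratio to cell channel. Percent activity normalized to 20 uM Triacsin C.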

[1] = measured here: cell number channel AC50, cells fed with added oleic acid
[2] = measured here: lipid fluorescence (Fed channel) AC50, cells fed with added oleic acid

Row | SMILES | cell number change | AC50 [1] | AC50 [2]
1 | Clc1cccc(CSc2nnc(-c3c[nH]c4ccccc34)o2)c1 | -82.9% | 4.61 µM [falling, partial curve] | 2.31 µM [rising, partial curve]
2 | COC(=O)C1(C)NC(c2ccc(O)cc2)C2C(=O)N(c3ccc(F)cc3)C(=O)C21 (configuration not stated) | 15.7% |  | 29.1 µM [rising, single point]
3 | COc1ccc(S(=O)(=O)N2CCOCC2)cc1NC(=O)CCNC(=O)c1ccc(Cl)cc1 | 78% | 9.2 µM [rising, partial curve] | 
4 | CCC(C(=O)NCc1ccccc1OC)n1nc(C)n2c(cc3occc32)c1=O (configuration not stated) |  | 0.13 µM [falling, full curve, poor fit] | 
5 | O=C(Cc1cccs1)NNC(=S)NCc1ccc(Cl)cc1 | -13.7% |  | 
6 | Cc1ccccc1OCC(O)CN1CCN(c2ccc(Cl)cc2)CC1 (configuration not stated) | -46.7% | 32.6 µM [falling, single point] | 29.1 µM [falling, single point]
7 | CN1CCC(NC(=O)Cc2c(F)cccc2Cl)CC1 | 13.5% |  | 2.59 µM [rising, partial curve, poor fit]
8 | CC(NC(=O)CSc1nnc2n1CCCCC2)c1ccccc1Cl (configuration not stated) | 0.774% |  | 
9 | Cc1ccc(NC(=O)C2C3CCCC2C3c2ccccc2)c(C)c1 (configuration not stated) | 3.69% |  | 6.51 µM [falling, single point]
10 | Cc1ccccc1CN(C)c1ccc(S(=O)(=O)N2CCN(C)CC2)cn1 | 0.258% |  | 2.31 µM [falling, partial curve, poor fit]
11 | COc1ccc(-c2oc3cccnc3c2-c2ccc(OC)nc2)cc1 | 2.27% |  | 29.1 µM [rising, single point]
12 | CC1CC(C)(C)CC2(C1)NC(=O)N(CC(=O)Nc1c(F)cccc1F)C2=O (configuration not stated) | -4.1% |  | 29.1 µM [rising, single point]
13 | COc1ccc(/C=N/NC(=O)c2ccc(-n3cnnn3)cc2)cc1 | -42% | 32.6 µM [falling, single point] | 
14 | CC1CCc2sc3nc(NCc4ccco4)n4ncnc4c3c2C1 (configuration not stated) | -11.6% | 7.31 µM [falling, single point] | 0.58 µM [rising, single point]
15 | COC(=O)c1cc(COc2ccc3c(c2)oc(=O)c2ccccc23)c(C)o1 | 2.82% | 0.517 µM [rising, partial curve, poor fit] | 
16 | CCc1cc2ccc(C)cc2nc1SCC(=O)NNC(=O)c1ccco1 | 8.48% | 0.092 µM [falling, full curve, poor fit] | 0.116 µM [falling, full curve]
17 | O=C(NC1CCCCCC1)C1CCN(c2nc3ccccc3o2)CC1 | 30% |  | 
18 | O=C(Nc1cccc([N+](=O)[O-])c1)C1C2/C=C\CCCCC21 (configuration not stated) | -16.5% | 6.51 µM [falling, single point] | 
19 | COc1ccc(-c2cc(C(=O)NC3=NCCS3)c3ccccc3n2)cc1OC |  | 0.231 µM [rising, full curve] | 0.184 µM [rising, full curve]

Row | SMILES | cell number change | AC50 [1] | AC50 [2]
20 | CCC1CN(C(=O)N2CCC(C(=O)Nc3ccccc3OC)CC2)c2ccccc2O1 (configuration not stated) | -11.8% |  | 0.411 µM [falling, partial curve, poor fit]
21 | Cc1cc(C(=O)N/N=C/C=C/c2cccc([N+](=O)[O-])c2)n[nH]1 | 19.4% | 0.82 µM [rising, full curve, poor fit] | 
22 | COC(=O)c1cccc(S(=O)(=O)N(Cc2ccco2)Cc2cc3cc(OC)ccc3[nH]c2=O)c1 | -16.7% |  | 
23 | CC1(C)COC(c2coc3ccccc3c2=O)OC1 | 15.9% | 6.51 µM [rising, single point] | 6.51 µM [rising, single point]
24 | CCOc1ccc(C(=O)NC(=S)Nc2ncccc2C)cc1[N+](=O)[O-] | -2.84% |  | 29.1 µM [rising, single point]
25 | O=C(Cn1c2ccccc2c(=O)c2ccccc21)N/N=C/c1cc([N+](=O)[O-])ccc1N1CCCCCC1 | 1.49% | 4.61 µM [rising, partial curve] | 5.17 µM [rising, partial curve]
26 | COc1cc(CN2CCNC(=O)C2CC(=O)NC2CCCC2)cc(OC)c1 (configuration not stated) |  |  | 0.58 µM [falling, single point]
27 | CCOC(=O)c1ccc(N2C(=O)[C@@H](c3ccccc3)[C@H]2c2ccccc2)cc1 | -34% | 16.4 µM [falling, partial curve, poor fit] | 14.6 µM [falling, partial curve]
28 | CSc1ncccc1C(=O)OCc1c(F)cccc1Cl | 20.3% |  | 29.1 µM [falling, single point]
29 | COCCn1c(SCC(=O)Nc2c(C)n(C)n(-c3ccccc3)c2=O)nnc1-c1ccncc1 | 13.5% | 6.51 µM [falling, partial curve, poor fit] | 6.51 µM [falling, partial curve, poor fit]
30 | CCN(CC(=O)Nc1c(Cl)cccc1Cl)C(=O)C1CCN(c2ncnc3sc(C)c(C)c23)CC1 |  |  | 29.1 µM [falling, single point]
31 | COc1cc(/C=C2/SC(=Nc3ccc(O)cc3)NC2=O)cc(OC)c1O | -6.51% |  | 4.11 µM [rising, single point]
32 | COc1ccc2oc(C(=O)Nc3ccccn3)c(C)c2c1 | -2.78% |  | 35.5 µM [falling, single point]
33 | Cc1cc(S(=O)(=O)NCCCn2ccnc2)c(C)cc1Cl | 5.44% |  | 0.82 µM [rising, full curve, poor fit]
34 | CCC1CCCCN1S(=O)(=O)c1ccc(S(=O)(=O)N(Cc2ccccn2)CC2CCCO2)cc1 (configuration not stated) | 26.6% |  | 14.6 µM [rising, partial curve]
35 | O=C(CCC(=O)c1ccc(Oc2ccccc2)cc1)Nc1ccc(C(=O)O)cc1 | 11.3% |  | 16.4 µM [rising, partial curve]
36 | S=c1nc[nH]c2c1ncn2C1CCCO1 (configuration not stated) | 33.5% | 9.2 µM [rising, partial curve] | 10.3 µM [rising, partial curve, poor fit]
37 | N#C/C(=C\c1ccc(OCc2ccc(Cl)cc2)cc1)C(=O)Nc1cccc(C(=O)O)c1 | 14.3% |  | 5.17 µM [rising, full curve]
38 | CCOc1ccc2cc(S(=O)(=O)N3CCOCC3)ccc2c1 | 29.7% | 2.31 µM [rising, single point] | 4.61 µM [rising, single point]

Row | SMILES | cell number change | AC50 [1] | AC50 [2]
39 | O=C(COC(=O)CCc1ccc(S(=O)(=O)N2CCOCC2)cc1)NC1CCCCCC1 | -7.05% |  | 
40 | CCCCOC(=O)c1ccc(N)cc1 | 7.7% |  | 5.17 µM [rising, single point]
41 | O=C(Oc1ccccc1C(=O)N1CCOCC1)c1ccc(Br)cc1 | -11.7% | 0.651 µM [falling, full curve, poor fit] | 
42 | O=C(NCc1c(Cl)cccc1Oc1ccccc1)c1ccccc1 | -49.1% | 32.6 µM [falling, single point] | 18.4 µM [falling, partial curve]
43 | CCOc1ccc(NC(=O)CN(C)C(=O)CCCc2c[nH]c3ccccc23)cc1OCC |  | 1.46 µM [rising, partial curve] | 
44 | CCOC(=O)/C(C#N)=C/c1cc(C)n(-c2ccc(C)cc2)c1C | -12.2% |  | 0.164 µM [falling, full curve, poor fit]
45 | CC(NC(=O)C1CCCN(S(=O)(=O)c2cccs2)C1)c1ccccc1 (configuration not stated) |  |  | 1.03 µM [rising, partial curve]
46 | Cc1cnc(C(=O)NCCc2ccc(C(F)(F)F)cc2)cn1 | 16.2% |  | 4.11 µM [rising, full curve]
47 | S=C(Nc1ccccc1Cl)N1CCC(c2ccccc2)C1 (configuration not stated) | -17.5% |  | 0.517 µM [falling, full curve, poor fit]
48 | O=C(COc1ccc(F)cc1)Nc1nc(-c2ccccn2)cs1 | -50% | 25.9 µM [falling, single point] | 
49 | O=C(Cn1c(=O)oc2cccnc21)Nc1ccccc1Oc1ccc(Cl)cc1Cl | 15.2% |  | 23.1 µM [rising, partial curve, poor fit]
50 | Cc1cccc(N2C(=O)CN(Cc3cccs3)C2=S)c1 | 14.4% |  | 2.06 µM [rising, single point]
51 | Oc1c(Br)cc(/C=N/n2c(-c3ccccc3)n[nH]c2=S)c(O)c1Br | -12.4% |  | 32.6 µM [rising, single point]
52 | COc1cccc(C(=O)C2CCCN(Cc3cn(C)nc3-c3ccccc3)C2)c1 (configuration not stated) | -56.6% | 16.4 µM [falling, partial curve] | 8.2 µM [falling, partial curve]
53 | COC(=O)c1cc(CNC(=O)Cc2ccsc2)ccc1OC | 9.13% |  | 
54 | COc1ccc(OCC(=O)N2CCc3ccccc3C2)cc1 | -1.46% |  | 29.1 µM [rising, partial curve, poor fit]
55 | CC(C)(C)c1ccccc1NC(=O)c1ccco1 | -7.71% |  | 0.103 µM [rising, partial curve]
56 | Cc1nn(C)cc1CN(C)C(=O)c1cc(-c2ccccc2)nc2ccc(Br)cc12 | 22.8% | 3.66 µM [rising, single point] | 10.3 µM [rising, single point]
57 | COc1ccc(C(=O)N2CCN(C3CCN(Cc4ccccc4)CC3)CC2)cc1OC | -30.3% | 0.206 µM [falling, full curve, poor fit] | 11.6 µM [falling, partial curve, poor fit]

Random excerpt: five records from the list.
Row | SMILES | cell number change | AC50 [1] | AC50 [2]
41 | O=C(Oc1ccccc1C(=O)N1CCOCC1)c1ccc(Br)cc1 | -11.7% | 0.651 µM [falling, full curve, poor fit] | 
49 | O=C(Cn1c(=O)oc2cccnc21)Nc1ccccc1Oc1ccc(Cl)cc1Cl | 15.2% |  | 23.1 µM [rising, partial curve, poor fit]
43 | CCOc1ccc(NC(=O)CN(C)C(=O)CCCc2c[nH]c3ccccc23)cc1OCC |  | 1.46 µM [rising, partial curve] | 
52 | COc1cccc(C(=O)C2CCCN(Cc3cn(C)nc3-c3ccccc3)C2)c1 (configuration not stated) | -56.6% | 16.4 µM [falling, partial curve] | 8.2 µM [falling, partial curve]
39 | O=C(COC(=O)CCc1ccc(S(=O)(=O)N2CCOCC2)cc1)NC1CCCCCC1 | -7.05% |  | 
